Patent US20200131584A1
No constants are given. Whether binding was seen depends on the method and setting. For some of these results: In cells and extracts the contact can be indirect. Some entries that bind do so weakly or less than the wild type.

Chains of the proteins cited; added tags and fusions are not shown. Lines headed by an entry give the natural chain unless they say otherwise; changes in a name come on top. Residues count along the entry.
UniProt P40763, residues 2-770: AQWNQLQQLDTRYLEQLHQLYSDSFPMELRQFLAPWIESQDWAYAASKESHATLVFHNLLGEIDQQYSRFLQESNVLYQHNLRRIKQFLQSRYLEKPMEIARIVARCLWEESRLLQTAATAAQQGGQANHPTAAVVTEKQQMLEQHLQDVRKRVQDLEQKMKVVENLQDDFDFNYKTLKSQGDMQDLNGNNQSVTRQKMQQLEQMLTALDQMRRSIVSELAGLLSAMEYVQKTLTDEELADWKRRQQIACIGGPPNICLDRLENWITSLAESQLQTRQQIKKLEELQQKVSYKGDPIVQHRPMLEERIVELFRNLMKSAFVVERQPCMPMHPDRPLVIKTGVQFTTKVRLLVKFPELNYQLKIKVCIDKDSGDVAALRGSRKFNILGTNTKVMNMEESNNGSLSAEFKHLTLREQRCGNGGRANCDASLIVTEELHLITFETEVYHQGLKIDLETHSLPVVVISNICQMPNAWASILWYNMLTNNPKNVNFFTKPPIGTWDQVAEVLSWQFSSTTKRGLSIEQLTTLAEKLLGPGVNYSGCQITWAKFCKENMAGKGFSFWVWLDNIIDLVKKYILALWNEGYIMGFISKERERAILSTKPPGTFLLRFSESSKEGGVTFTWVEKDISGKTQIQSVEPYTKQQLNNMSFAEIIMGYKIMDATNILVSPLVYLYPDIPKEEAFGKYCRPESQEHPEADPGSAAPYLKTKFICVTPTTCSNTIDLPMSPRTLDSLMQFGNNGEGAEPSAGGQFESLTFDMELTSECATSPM
UniProt Q9Y238: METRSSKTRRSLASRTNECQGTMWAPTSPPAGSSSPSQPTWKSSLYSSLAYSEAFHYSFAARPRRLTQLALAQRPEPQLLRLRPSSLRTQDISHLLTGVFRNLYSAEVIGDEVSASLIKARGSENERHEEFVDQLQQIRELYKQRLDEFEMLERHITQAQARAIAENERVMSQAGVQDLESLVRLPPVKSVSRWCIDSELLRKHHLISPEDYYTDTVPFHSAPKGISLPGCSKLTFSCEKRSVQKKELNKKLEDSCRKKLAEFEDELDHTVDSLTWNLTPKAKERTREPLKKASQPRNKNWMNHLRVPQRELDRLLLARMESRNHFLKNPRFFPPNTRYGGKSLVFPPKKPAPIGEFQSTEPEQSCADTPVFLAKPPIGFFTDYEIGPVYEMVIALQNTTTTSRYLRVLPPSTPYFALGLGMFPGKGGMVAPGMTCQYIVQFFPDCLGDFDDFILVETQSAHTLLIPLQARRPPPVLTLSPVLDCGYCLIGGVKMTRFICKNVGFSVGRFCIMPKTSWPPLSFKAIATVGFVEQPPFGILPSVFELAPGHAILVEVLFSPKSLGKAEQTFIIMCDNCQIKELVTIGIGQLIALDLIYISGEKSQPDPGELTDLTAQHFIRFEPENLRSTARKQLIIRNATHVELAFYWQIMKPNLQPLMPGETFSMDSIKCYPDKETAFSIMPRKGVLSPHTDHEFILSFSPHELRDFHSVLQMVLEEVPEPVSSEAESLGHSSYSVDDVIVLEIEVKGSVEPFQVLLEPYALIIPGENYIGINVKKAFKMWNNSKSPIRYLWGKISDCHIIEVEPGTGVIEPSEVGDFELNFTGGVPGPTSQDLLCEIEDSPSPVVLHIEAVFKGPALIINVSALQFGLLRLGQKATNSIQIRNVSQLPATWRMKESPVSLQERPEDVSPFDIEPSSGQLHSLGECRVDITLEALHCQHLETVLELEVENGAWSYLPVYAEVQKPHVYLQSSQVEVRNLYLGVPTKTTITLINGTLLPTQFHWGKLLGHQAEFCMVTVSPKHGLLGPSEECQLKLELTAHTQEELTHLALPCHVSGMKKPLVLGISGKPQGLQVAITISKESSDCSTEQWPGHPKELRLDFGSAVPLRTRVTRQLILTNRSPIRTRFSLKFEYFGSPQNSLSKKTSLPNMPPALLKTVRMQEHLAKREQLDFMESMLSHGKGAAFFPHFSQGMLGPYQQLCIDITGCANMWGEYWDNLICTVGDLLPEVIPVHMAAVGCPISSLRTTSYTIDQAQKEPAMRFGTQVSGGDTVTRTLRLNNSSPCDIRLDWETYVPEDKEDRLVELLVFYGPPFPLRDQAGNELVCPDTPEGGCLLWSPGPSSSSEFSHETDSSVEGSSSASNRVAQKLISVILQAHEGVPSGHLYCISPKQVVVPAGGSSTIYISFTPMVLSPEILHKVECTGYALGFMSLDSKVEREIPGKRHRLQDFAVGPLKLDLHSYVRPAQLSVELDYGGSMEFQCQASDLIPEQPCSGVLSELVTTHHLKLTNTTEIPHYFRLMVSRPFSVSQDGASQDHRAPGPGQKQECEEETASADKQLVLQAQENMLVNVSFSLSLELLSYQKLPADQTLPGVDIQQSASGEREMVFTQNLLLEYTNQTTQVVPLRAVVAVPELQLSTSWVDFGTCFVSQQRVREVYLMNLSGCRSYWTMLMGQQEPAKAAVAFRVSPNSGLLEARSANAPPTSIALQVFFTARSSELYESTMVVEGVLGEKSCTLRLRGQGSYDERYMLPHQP

Assays:
p-STAT3 (Tyr705) [1] = target: p-STAT3 (Tyr705) (UniProt P40763); assay: co-IP, Flag-DLEC1-transfected carcinoma and HEK293T cells; IL-6 stimulation decreased this interaction
STAT3 [2] = target: STAT3 (UniProt P40763); assay: summary of the co-IP results (abstract of the examples)
STAT3 [3] = target: STAT3 (UniProt P40763); assay: IP with anti-STAT3, anti-Flag or anti-JAK2 antibody, Flag-DLEC1-transfected cells (FIG. 7E-H)
STAT3 [4] = target: STAT3 (UniProt P40763); assay: co-IP, Flag-DLEC1-transfected carcinoma and HEK293T cells; IL-6 stimulation increased this interaction
STAT3 [5] = target: STAT3 (UniProt P40763); assay: reciprocal co-immunoprecipitation, HEK293T lysates
p-STAT3 (Tyr705) [6] = target: p-STAT3 (Tyr705) (UniProt P40763); assay: reciprocal co-immunoprecipitation, HEK293T lysates
STAT3 [7] = target: STAT3 (UniProt P40763); assay: IP of HEK293T lysates with DLEC1, STAT3 or JAK2 antibodies (FIG. 7D)

Measured: binding

Flag-DLEC1 (exogenous, ectopically expressed DLEC1) (from UniProt Q9Y238 1-1755)
binds: p-STAT3 (Tyr705) [1] | STAT3 [2] | STAT3 [3] | STAT3 [4]

endogenous DLEC1 protein (deleted in lung and esophageal cancer 1) (from UniProt Q9Y238 1-1755)
binds: STAT3 [5] | p-STAT3 (Tyr705) [6] | STAT3 [7]
